# PubChem BioAssay AID1347076 (National Center for Advancing Translational Sciences (NCATS), 2019)
# The whole screen tested about 400,000 compounds, of which about 13,000 (3.2%) were called active. The call rests on the fitted dose curve; in most records, active means well fitted cell-killing curve with a large enough effect; inconclusive means small, poorly fitted or top-dose-only effect, or effect the other way; inactive means flat fitted curve, though single readings scatter. Inconclusive results, whose numbers are uncertain, are shown. A potency beside an inconclusive call is a rough fit, not a confirmed value.
# Assay: qHTS assay for MDR1-selective chemotherapeutics: Primary screen using the drug-selected MDR subline cells KB-V1; further: nearly all actives have a fitted effect of over 60% in size
# Settings: KB-V1 MDR cells viability, CellTiter-Glo, 72 h; series mostly up to 46.1 µM
# Outline: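 Compound-treated KB-V1 multidrug-resistant cells, 72 h, 37 degrees C; viability by CellTiter-Glo. Fitted qHTS curves give the values.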
# Potency means the concentration at half of the fitted maximal effect.
row,Compound,Potency
1,COc1cc(/C=C2/C(=O)NN(c3ccc(Cl)cc3)C2=O)cc(Br)c1O,"inconclusive: 14.6 µM [rising, partial curve, poor fit]"
2,Cc1cc(N2C(=O)C(O)=C(C(=O)c3cc4ccccc4o3)C2c2cccc(Br)c2)no1 (configuration not stated),"inconclusive: 29.1 µM [cytotoxic, single point]"
